# No constants are given. Whether binding was seen depends on the method and setting. Some results given as binding are weak or reduced against the parent protein; the word gives no strength. For some assays here: Tags and fused reporters may be left off the sequences shown.
# T1: human VEGFA 121 (human, UniProt P15692-9 27-147, biotinylated (BLI assays))
# T1 construct: also called biotinylated VEGF
# T1 sequence (looked up): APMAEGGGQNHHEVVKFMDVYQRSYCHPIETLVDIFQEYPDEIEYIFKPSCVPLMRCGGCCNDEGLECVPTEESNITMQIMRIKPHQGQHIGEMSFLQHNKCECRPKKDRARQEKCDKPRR
# Assays:
# human VEGFA 121 [1] = target: T1, human VEGFA 121; assay: MALLS
# human VEGFA 121 [2] = target: T1, human VEGFA 121; assay: MALLS (FIG. 16B)
# human VEGFA 121 [3] = target: T1, human VEGFA 121; assay: SEC-MALLS of VLD9-Fc (short mutant hinge) mixed with VEGFA121
# [4] = target: vascular endothelial growth factor A (VEGFA) (UniProt P15692); assay: X-ray crystal structure of VLD9-VEGFA
# [5] = target: vascular endothelial growth factor A (VEGFA) (UniProt P15692); assay: phage display selection and soluble fragment ELISA
binding (human VEGFA 121 [1]),binding (human VEGFA 121 [2]),binding (human VEGFA 121 [3]),binding [4],binding [5],Binder
binds,binds,binds,–,–,"VLD9-Fc with short mutant hinge (Fc fusion, not shown: a dimerising Fc or GST) DIQMTQSPSSLSASVGDRVTITCRASRAIAAYLNWYQQKPGKAPKLLIYAYSDLQSGVPSRFSGSGSGTDFTLTISSLQPEDFATYYCQQVWANPYTFGQGTKVEIKRA"
–,–,–,binds,binds,"VLD9 homodimer (other, Homodimer of two identical human light chain variable domains selected on VEGF; Expressed generally as Ig5 and Ig12 were; also called VLD9 dimer; immunoglobulin VLD9) VL: DIQMTQSPSSLSASVGDRVTITCRASRAIAAYLNWYQQKPGKAPKLLIYAYSDLQSGVPSRFSGSGSGTDFTLTISSLQPEDFATYYCQQVWANPYTFGQGTKVEIKRA"

# Source: patent US20200033363A1 (GARVAN INSTITUTE OF MEDICAL RESEARCH, published 2020)
